Only a part is listed here, and it is no random draw. The calls were merged from several studies; some rest on single wells. The list shows a part of the results.
Tests used:
Settings in all cases: stereoisomer not certain
OR4K3 = system: T1, OR4K3
T1 sequence (whole entry): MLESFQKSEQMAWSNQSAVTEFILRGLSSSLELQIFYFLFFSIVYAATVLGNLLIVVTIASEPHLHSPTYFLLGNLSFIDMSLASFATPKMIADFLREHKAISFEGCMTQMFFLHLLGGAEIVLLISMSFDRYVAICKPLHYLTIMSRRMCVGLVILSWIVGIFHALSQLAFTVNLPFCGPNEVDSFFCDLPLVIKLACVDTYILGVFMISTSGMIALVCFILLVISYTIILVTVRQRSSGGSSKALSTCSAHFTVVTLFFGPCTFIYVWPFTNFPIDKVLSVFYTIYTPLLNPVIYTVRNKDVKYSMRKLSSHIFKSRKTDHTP
How it was run: (§1)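 Values were gathered from published papers (main text and supplementary material), with extra details requested from the original authors when needed, and checked for typos and inconsistencies. Each receptor–molecule pair is called responsive (active) if the original authors judged the measured signal statistically different from baseline, and non-responsive (inactive) otherwise. Assay methods varied by source, often transient mammalian cell-line luciferase assays. Recorded details include cell line, G-protein, co-transfected protein and tags.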

Chains of the proteins cited; added tags and fusions are not shown. Where a name states a change or a piece, a line headed by the entry shows the natural chain unless it says otherwise. Chains listed by the source or under a name are the forms on record and can include a tag or linker.
UniProt Q8NGB6: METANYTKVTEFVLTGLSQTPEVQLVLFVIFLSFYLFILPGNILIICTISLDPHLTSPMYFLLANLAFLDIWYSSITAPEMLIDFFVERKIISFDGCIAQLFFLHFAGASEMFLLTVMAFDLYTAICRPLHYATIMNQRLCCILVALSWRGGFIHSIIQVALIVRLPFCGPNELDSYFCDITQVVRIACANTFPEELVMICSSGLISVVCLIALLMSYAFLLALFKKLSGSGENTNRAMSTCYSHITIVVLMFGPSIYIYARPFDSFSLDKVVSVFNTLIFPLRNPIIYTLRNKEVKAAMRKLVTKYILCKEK
OR4N2, as listed by the source: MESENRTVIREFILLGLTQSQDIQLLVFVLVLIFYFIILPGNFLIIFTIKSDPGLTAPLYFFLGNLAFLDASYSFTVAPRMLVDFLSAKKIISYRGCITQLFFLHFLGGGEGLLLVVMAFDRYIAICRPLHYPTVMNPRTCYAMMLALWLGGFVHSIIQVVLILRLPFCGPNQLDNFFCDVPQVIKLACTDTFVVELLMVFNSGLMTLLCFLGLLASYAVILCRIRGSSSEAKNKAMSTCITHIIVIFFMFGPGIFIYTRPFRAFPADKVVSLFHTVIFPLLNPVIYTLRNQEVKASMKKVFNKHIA

OR4K5 (Homo sapiens) = target: T2, OR4K5 (Homo sapiens) (UniProt Q8NGD3)
T2 sequence (whole entry): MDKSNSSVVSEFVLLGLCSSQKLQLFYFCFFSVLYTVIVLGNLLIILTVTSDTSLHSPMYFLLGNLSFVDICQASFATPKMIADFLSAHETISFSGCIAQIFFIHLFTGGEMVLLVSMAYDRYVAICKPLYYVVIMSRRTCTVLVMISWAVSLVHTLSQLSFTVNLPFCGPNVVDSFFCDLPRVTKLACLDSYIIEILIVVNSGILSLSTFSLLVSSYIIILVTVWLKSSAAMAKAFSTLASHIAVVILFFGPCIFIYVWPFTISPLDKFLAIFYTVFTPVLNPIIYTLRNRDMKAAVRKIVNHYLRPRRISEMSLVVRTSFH
How it was run: as §1

OR4KF = system: T3, OR4KF
T3 sequence (whole entry): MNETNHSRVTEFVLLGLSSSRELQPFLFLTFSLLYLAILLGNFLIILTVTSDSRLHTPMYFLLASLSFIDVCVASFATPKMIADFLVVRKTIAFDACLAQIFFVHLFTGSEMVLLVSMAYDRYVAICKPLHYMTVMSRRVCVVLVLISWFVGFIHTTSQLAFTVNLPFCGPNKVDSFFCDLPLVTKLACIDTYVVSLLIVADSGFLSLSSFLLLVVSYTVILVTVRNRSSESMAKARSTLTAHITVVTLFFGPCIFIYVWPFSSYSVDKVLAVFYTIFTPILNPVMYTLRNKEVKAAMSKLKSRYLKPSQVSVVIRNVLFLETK
How it was run: as §1

OR4KH = system: T4, OR4KH
T4 sequence (whole entry): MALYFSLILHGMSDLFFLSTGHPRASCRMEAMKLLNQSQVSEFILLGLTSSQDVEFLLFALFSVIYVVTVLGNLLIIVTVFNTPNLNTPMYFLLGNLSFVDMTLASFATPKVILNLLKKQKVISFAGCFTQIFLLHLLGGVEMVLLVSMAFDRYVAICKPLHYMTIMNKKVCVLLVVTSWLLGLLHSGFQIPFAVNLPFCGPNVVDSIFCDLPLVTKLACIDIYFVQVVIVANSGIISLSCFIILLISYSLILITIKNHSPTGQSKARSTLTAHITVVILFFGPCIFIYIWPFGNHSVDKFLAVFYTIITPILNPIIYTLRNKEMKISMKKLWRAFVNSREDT
How it was run: as §1

OR4L1 = system: T5, OR4L1
T5 sequence (whole entry): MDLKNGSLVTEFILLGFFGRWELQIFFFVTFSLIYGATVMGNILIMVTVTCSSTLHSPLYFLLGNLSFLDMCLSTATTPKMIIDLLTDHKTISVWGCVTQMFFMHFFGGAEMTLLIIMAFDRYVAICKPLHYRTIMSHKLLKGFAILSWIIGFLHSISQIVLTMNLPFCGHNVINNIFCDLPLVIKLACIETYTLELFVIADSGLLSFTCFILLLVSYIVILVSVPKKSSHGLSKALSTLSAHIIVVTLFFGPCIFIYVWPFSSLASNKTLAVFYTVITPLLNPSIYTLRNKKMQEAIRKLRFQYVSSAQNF
How it was run: as §1

OR4M1 (Homo sapiens) = target: T6, OR4M1 (Homo sapiens) (UniProt Q8NGD0)
T6 sequence (whole entry): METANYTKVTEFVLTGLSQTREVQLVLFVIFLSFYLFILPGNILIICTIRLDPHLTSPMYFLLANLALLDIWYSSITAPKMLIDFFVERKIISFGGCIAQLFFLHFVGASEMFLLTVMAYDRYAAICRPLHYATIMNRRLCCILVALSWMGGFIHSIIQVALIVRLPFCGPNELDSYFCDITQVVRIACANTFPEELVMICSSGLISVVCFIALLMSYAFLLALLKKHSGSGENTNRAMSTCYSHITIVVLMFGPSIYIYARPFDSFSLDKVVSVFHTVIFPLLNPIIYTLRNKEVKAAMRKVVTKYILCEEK
How it was run: as §1

OR4N2 (Homo sapiens) = target: T7, OR4N2 (Homo sapiens) (UniProt Q8NGD1)
T7 sequence (whole entry): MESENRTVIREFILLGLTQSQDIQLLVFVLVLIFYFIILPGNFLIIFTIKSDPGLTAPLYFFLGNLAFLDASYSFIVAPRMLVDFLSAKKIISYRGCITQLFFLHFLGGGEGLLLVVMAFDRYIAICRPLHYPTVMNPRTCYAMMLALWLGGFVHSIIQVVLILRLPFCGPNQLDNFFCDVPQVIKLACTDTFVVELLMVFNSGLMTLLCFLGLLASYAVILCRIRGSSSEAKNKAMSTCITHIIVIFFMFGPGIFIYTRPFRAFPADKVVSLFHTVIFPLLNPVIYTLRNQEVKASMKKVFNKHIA
How it was run: as §1

OR4N2 [1] = system: OR4N2
How it was run: as §1

OR4N2 [2] = system: OR4N2; remark: listed apart in the source
How it was run: as §1

OR4N4 (Homo sapiens) = target: T8, OR4N4 (Homo sapiens) (UniProt Q8N0Y3)
T8 sequence (whole entry): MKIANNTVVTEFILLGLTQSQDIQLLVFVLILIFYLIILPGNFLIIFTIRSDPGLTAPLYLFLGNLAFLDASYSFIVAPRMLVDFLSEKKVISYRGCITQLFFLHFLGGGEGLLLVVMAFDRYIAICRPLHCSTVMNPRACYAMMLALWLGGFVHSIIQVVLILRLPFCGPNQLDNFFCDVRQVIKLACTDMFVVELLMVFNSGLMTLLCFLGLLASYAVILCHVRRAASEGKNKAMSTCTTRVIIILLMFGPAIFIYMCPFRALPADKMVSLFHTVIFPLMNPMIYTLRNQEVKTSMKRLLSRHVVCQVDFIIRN
How it was run: as §1

OR4N5 (Homo sapiens) = target: T9, OR4N5 (Homo sapiens) (UniProt Q8IXE1)
T9 sequence (whole entry): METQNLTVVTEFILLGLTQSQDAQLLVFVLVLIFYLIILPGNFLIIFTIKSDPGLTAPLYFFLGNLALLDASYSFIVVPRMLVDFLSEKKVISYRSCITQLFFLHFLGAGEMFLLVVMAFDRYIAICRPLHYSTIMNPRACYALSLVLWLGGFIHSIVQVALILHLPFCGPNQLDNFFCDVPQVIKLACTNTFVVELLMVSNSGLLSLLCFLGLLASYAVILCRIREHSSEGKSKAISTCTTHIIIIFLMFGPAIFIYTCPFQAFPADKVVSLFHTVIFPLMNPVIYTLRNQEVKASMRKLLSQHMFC
How it was run: as §1

OR4P4 [3] = system: T10, OR4P4
T10 sequence (whole entry): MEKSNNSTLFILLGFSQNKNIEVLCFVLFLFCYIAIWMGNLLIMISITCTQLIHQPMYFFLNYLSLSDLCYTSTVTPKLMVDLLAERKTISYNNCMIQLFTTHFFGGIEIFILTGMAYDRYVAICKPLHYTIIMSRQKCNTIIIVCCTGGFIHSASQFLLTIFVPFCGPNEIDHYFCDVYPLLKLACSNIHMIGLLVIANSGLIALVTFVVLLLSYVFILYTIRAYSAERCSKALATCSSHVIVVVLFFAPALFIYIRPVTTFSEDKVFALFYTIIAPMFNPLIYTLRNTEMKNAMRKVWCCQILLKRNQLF
How it was run: as §1

OR4P4 [4] = system: T11, OR4P4; remark: listed apart in the source
T11 sequence (whole entry): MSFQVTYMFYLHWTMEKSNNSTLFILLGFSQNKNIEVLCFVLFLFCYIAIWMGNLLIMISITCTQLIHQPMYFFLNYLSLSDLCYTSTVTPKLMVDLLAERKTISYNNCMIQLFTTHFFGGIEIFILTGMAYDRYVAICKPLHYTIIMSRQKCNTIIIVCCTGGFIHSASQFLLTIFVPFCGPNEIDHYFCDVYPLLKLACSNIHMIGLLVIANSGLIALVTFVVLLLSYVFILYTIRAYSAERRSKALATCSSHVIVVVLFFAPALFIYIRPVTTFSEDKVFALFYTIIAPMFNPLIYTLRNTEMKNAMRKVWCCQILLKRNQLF
How it was run: as §1

OR4Q3 (Homo sapiens) = target: T12, OR4Q3 (Homo sapiens) (UniProt Q8NH05)
T12 sequence (whole entry): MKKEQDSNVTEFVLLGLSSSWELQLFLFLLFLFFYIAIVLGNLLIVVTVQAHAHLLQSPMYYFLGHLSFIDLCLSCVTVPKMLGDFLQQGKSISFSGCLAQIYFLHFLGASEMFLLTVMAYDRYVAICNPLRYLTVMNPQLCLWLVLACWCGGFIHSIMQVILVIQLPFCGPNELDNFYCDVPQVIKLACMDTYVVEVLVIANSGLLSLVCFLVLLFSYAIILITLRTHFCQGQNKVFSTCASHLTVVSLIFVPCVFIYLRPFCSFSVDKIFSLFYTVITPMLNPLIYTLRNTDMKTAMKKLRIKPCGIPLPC
How it was run: as §1

OR4S1 (Homo sapiens) = target: T13, OR4S1 (Homo sapiens) (UniProt Q8NGB4)
T13 sequence (whole entry): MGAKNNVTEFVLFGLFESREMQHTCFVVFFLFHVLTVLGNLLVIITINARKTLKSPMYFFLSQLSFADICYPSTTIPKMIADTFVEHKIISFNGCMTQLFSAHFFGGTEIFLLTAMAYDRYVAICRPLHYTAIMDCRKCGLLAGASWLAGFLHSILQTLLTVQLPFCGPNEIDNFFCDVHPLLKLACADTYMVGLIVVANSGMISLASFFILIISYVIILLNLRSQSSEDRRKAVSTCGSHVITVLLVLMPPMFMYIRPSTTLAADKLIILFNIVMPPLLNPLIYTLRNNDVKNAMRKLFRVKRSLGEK
How it was run: as §1

OR4L1 (Homo sapiens) = OR4L1 (Homo sapiens) (UniProt Q8NH43)
How it was run: as §1

OR4M2 (Homo sapiens) = OR4M2 (Homo sapiens) (UniProt Q8NGB6)
How it was run: as §1

OR4P4 (Homo sapiens) = OR4P4 (Homo sapiens) (UniProt Q8NGL7)
How it was run: as §1

Measured: odorant receptor agonist call

C=CCc1ccc(OC)c(OC)c1
inactive: OR4K3 | OR4K5 (Homo sapiens) | OR4KF | OR4KH | OR4L1 | OR4M1 (Homo sapiens) | OR4N2 (Homo sapiens) | OR4N2 [1] | OR4N2 [2] | OR4N4 (Homo sapiens) | OR4N5 (Homo sapiens) | OR4P4 [3] | OR4P4 [4] | OR4Q3 (Homo sapiens) | OR4S1 (Homo sapiens)

CC(C)C=O
inactive: OR4K3 | OR4K5 (Homo sapiens) | OR4KF | OR4KH | OR4L1 | OR4M1 (Homo sapiens) | OR4N2 (Homo sapiens) | OR4N4 (Homo sapiens) | OR4N5 (Homo sapiens) | OR4P4 [3] | OR4P4 [4] | OR4Q3 (Homo sapiens) | OR4S1 (Homo sapiens)

CC12C=CCC1C1CCC3CC(=O)CCC3(C)C1CC2 (stereo not drawn)
active: OR4P4 [4]
inactive: OR4K3 | OR4K5 (Homo sapiens) | OR4KF | OR4KH | OR4L1 (Homo sapiens) | OR4L1 | OR4M1 (Homo sapiens) | OR4M2 (Homo sapiens) | OR4N2 (Homo sapiens) | OR4N4 (Homo sapiens) | OR4N5 (Homo sapiens) | OR4P4 (Homo sapiens) | OR4P4 [3] | OR4Q3 (Homo sapiens) | OR4S1 (Homo sapiens)

CC1=CCC(C(C)(C)O)CC1 (stereo not drawn)
inactive: OR4K3 | OR4K5 (Homo sapiens) | OR4KF | OR4KH | OR4L1 | OR4M1 (Homo sapiens) | OR4N2 (Homo sapiens) | OR4N4 (Homo sapiens) | OR4N5 (Homo sapiens) | OR4P4 [3] | OR4P4 [4] | OR4Q3 (Homo sapiens) | OR4S1 (Homo sapiens)

CCCCCCCCCCC=O
active: OR4KF
inactive: OR4K3 | OR4K5 (Homo sapiens) | OR4KH | OR4L1 | OR4M1 (Homo sapiens) | OR4N2 (Homo sapiens) | OR4N4 (Homo sapiens) | OR4N5 (Homo sapiens) | OR4P4 [3] | OR4P4 [4] | OR4Q3 (Homo sapiens) | OR4S1 (Homo sapiens)

CCCCCC(=O)O
inactive: OR4K3 | OR4K5 (Homo sapiens) | OR4KF | OR4KH | OR4L1 | OR4M1 (Homo sapiens) | OR4N2 (Homo sapiens) | OR4N4 (Homo sapiens) | OR4N5 (Homo sapiens) | OR4P4 [3] | OR4P4 [4] | OR4Q3 (Homo sapiens) | OR4S1 (Homo sapiens)
